Measured data: PubChem BioAssay AID504791 (Drosophila RNAi Screening Center, 2011)
The screen tested about 23,000 reagents; below is an unselected part of those that have a named target and a result. Over the whole deposit, 199 (0.86%) are marked active. 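Plate-scaled ratios behind the calls are not deposited; printed light signals are raw; many rows marked increased or decreased are still called inactive.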 A plus sign joins genes that one reagent is predicted to hit. No sequences are given here. Not stated in the record: the direction of the score.

Screen: 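Factors in Argonaute-based small RNA production and activity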 (primary screen)
System: Drosophila S2-derived reporter cells
Reagent: long dsRNA against Drosophila genes, about 150-250 ng dsRNA per well (siRNA assay); about 80-120 ng (miRNA assay)
Duration: about 5 days (siRNA assay); about 4 days (miRNA assay)
Treatment: copper sulfate induction of reporters: 25 µM (siRNA assay); 200 mM stated (miRNA assay), 1-2 days before reading
Measured: 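Per-well ratio of Renilla over firefly light, expressed relative to that plate's average ratio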
Hit rule: 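a well was a first-pass pick when its plate-scaled ratio rose above 1.5 (siRNA assay) or 1.6 (miRNA assay), or dropped below 0.6; a gene counted only if two separate dsRNAs agreed on retest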

Gene | DRSC id | miRNA reporter change | stable assay Renilla, run 1 (luminescence) | stable assay firefly, run 1 (luminescence) | Call
Neurochondrin | DRSC12580 | – | 7731 | 4.08e5 | inactive
CG15404 | DRSC00418 | – | 9619 | 5.12e5 | inactive
CG13437 | DRSC06397 | – | 5422 | 4.33e5 | inactive
tHMG1 (testis-enriched HMG-box-containing protein 1) | DRSC16181 | – | 9362 | 5.40e5 | inactive
CG15368 | DRSC18040 | – | 4983 | 4.55e5 | inactive
CG15368 | DRSC23291 | – | 4103 | 3.38e5 | inactive
CG3815 | DRSC18324 | – | 9256 | 4.94e5 | inactive
wat (waterproof) | DRSC14854 | – | 6327 | 3.75e5 | inactive
Cyp6a16Psi (retired record) | DRSC03307 | – | 7386 | 3.33e5 | inactive
CG1622 | DRSC19745 | – | 7646 | 4.77e5 | inactive
elg1 (enhanced level of genomic instability 1) | DRSC10229 | – | 9626 | 3.82e5 | inactive
Pak3 | DRSC15017 | – | 7482 | 2.87e5 | inactive
SkpD (SKP1-related D) | DRSC22208 | – | 9266 | 5.65e5 | inactive
ttk (tramtrack) | DRSC14078 | – | 7907 | 3.53e5 | inactive
ttk (tramtrack) | DRSC17091 | – | 5596 | 3.08e5 | inactive
CG7728 | DRSC10907 | – | 7178 | 2.70e5 | inactive
TotF (Turandot F) | DRSC02305 | – | 7523 | 5.47e5 | inactive
FASN2 (Fatty acid synthase 2) | DRSC00167 | – | 5935 | 4.32e5 | inactive
FASN2 (Fatty acid synthase 2) | DRSC00610 | – | 2.06e5 | 1.11e5 | inactive
RpL34b (Ribosomal protein L34b) | DRSC16475 | – | 7836 | 3.81e5 | inactive
Pep (Protein on ecdysone puffs) | DRSC11252 | reporter ratio raised past the hit cutoff | 10798 | 2.73e5 | active
side-V (sidestep V) | DRSC04188 | – | 3375 | 2.95e5 | inactive
side-V (sidestep V) | DRSC04189 | – | 2424 | 2.82e5 | inactive
side-V (sidestep V) | DRSC22266 | – | 8438 | 4.15e5 | inactive
CG1227 | DRSC12534 | – | 8223 | 4.10e5 | inactive
eco (Establishment of cohesion) | DRSC11006 | – | 8150 | 3.48e5 | inactive
CG32263 | DRSC22431 | – | 5602 | 5.20e5 | inactive
CG15753 (retired record) | DRSC19718 | – | 3931 | 2.62e5 | inactive
CG15753 (retired record) | DRSC22985 | – | 4954 | 3.82e5 | inactive
CG7786 | DRSC07045 | – | 5991 | 3.35e5 | inactive
sbm (sobremesa) | DRSC20185 | – | 4288 | 3.99e5 | inactive
Ugt37E1 (UDP-glycosyltransferase family 37 member E1) | DRSC02248 | – | 7306 | 3.55e5 | inactive
CG5676 | DRSC02875 | – | 7423 | 4.93e5 | inactive
CG15098 | DRSC06527 | – | 7056 | 4.42e5 | inactive
Helz (Helicase with zinc finger) | DRSC11072 | – | 9355 | 2.94e5 | inactive
Vti1b (Vesicle transport through interaction with t-SNAREs 1b) | DRSC16283 | – | 8604 | 3.48e5 | inactive
Vti1b (Vesicle transport through interaction with t-SNAREs 1b) | DRSC16284 | – | 6747 | 3.07e5 | inactive
CG6685 | DRSC10695 | – | 7107 | 4.50e5 | inactive
Cpr65Eb (Cuticular protein 65Eb) | DRSC11026 | – | 6740 | 4.61e5 | inactive
CG14020 | DRSC02350 | – | 7267 | 4.96e5 | inactive
CG3679 | DRSC19346 | – | 7826 | 5.93e5 | inactive
ITP (Ion transport peptide) | DRSC04222 | – | 7578 | 4.19e5 | inactive
Hcf (Host cell factor) | DRSC17143 | – | 7703 | 4.69e5 | inactive
Idgf3 (Imaginal disc growth factor 3) | DRSC03351 | – | 74744 | 1.33e6 | inactive
AnxB10 (Annexin B10) | DRSC20677 | – | 7411 | 3.68e5 | inactive
Vha100-5 (Vacuolar H[+] ATPase 100kD subunit 5) | DRSC02175 | – | 6938 | 4.31e5 | inactive
CG14234 | DRSC19317 | – | 6392 | 5.83e5 | inactive
CG14234 | DRSC19589 | – | 5786 | 5.28e5 | inactive
CG14892 | DRSC15014 | reporter ratio lowered past the hit cutoff | 8247 | 5.59e5 | inactive
pHCl-1 (pH-sensitive chloride channel 1) | DRSC09401 | – | 5619 | 3.49e5 | inactive
pHCl-1 (pH-sensitive chloride channel 1) | DRSC09991 | reporter ratio lowered past the hit cutoff | 7132 | 4.66e5 | inactive
pHCl-1 (pH-sensitive chloride channel 1) | DRSC10589 | – | 9090 | 4.79e5 | inactive
CG30016 | DRSC05242 | – | 4535 | 3.17e5 | inactive
CG32267 | DRSC21561 | – | 8694 | 5.27e5 | inactive
Prx6a (Peroxiredoxin 6a) | DRSC00565 | – | 14313 | 4.16e5 | inactive
thoc5 | DRSC04327 | – | 9360 | 1.65e6 | inactive
Ubc10 (Ubiquitin conjugating enzyme 10) | DRSC07568 | – | 6030 | 4.26e5 | inactive
ND-PDSW (NADH dehydrogenase (ubiquinone) PDSW subunit) | DRSC00715 | – | 34735 | 2.01e5 | inactive
CG9692 | DRSC11091 | – | 6819 | 3.10e5 | inactive
Vha16-5 (Vacuolar H[+] ATPase 16kD subunit 5) | DRSC02986 | – | 8822 | 6.08e5 | inactive
CG15594 | DRSC12280 | – | 6659 | 4.40e5 | inactive
CG15563 | DRSC15101 | – | 6590 | 4.40e5 | inactive
Poc1 (Proteome of centrioles 1) | DRSC09713 | – | 9949 | 4.70e5 | inactive
Oxp (Oxpecker) | DRSC06712 | – | 5931 | 3.00e5 | inactive
Cul4 (Cullin 4) | DRSC07243 | – | 6056 | 4.27e5 | inactive
CG15213 | DRSC10213 | – | 5216 | 3.79e5 | inactive
hng1 (hinge1) | DRSC04555 | – | 5.81e5 | 2.92e5 | inactive
por (porcupine) | DRSC20362 | – | 4483 | 4.12e5 | inactive
CG30031 + deltaTry + gammaTry | DRSC07622 | – | 5875 | 3.37e5 | inactive
CG10936 | DRSC05669 | – | 5914 | 4.90e5 | inactive
CG10936 | DRSC05670 | – | 6488 | 3.62e5 | inactive
CG10936 | DRSC06018 | – | 6295 | 2.59e5 | inactive
GCS1 (Glucosidase 1) | DRSC19744 | – | 8392 | 4.34e5 | inactive
CG13631 | DRSC14632 | – | 9499 | 3.62e5 | inactive
CG13631 | DRSC23168 | – | 5759 | 4.94e5 | inactive
Acp62F (Accessory gland protein 62F) | DRSC08136 | – | 7155 | 4.15e5 | inactive
CR33315 (pseudo) | DRSC22947 | – | 4811 | 3.51e5 | inactive
CG12831 | DRSC06179 | – | 6587 | 4.02e5 | inactive
CG16741 | DRSC06622 | – | 5367 | 3.53e5 | inactive
brm (brahma) | DRSC11330 | reporter ratio lowered past the hit cutoff | 4958 | 4.02e5 | active
Rabex-5 (Rabaptin-5-associated exchange factor for Rab5) | DRSC08628 | – | 10055 | 3.20e5 | inactive
CG8191 + CG12379 | DRSC19451 | – | 5631 | 5.10e5 | inactive
Muc11A (Mucin 11A) | DRSC19498 | – | 5450 | 4.71e5 | inactive

Active calls (from the list above):
Gene | DRSC id | miRNA reporter change | stable assay Renilla, run 1 (luminescence) | stable assay firefly, run 1 (luminescence) | Call
Pep (Protein on ecdysone puffs) | DRSC11252 | reporter ratio raised past the hit cutoff | 10798 | 2.73e5 | active
brm (brahma) | DRSC11330 | reporter ratio lowered past the hit cutoff | 4958 | 4.02e5 | active
